This experiment concerns BDF1 mice, P388 leukemia ip, median survival T/C. Description: NCI In Vivo Anticancer Drug Screen. Data for tumor model P388 Leukemia (intraperitoneal) in B6D2F1 (BDF1) mice. The following applies: T/C endpoint: median survival time, higher T/C = longer survival. Summed up:
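Survival ratio, drug arm over vehicle arm, in mice with a transplanted tumour.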

Where [1] appears, read: dose: 10.0 mg/kg/injection, schedule: Q01DX009 (ip), vehicle: saline with Tween-80.
[2] abbreviates: dose: 200.0 mg/kg/injection, schedule: Q01DX009 (ip), vehicle: saline with Tween-80.
The mark [3] stands for this setting: dose: 100.0 mg/kg/injection, schedule: Q01DX009 (ip), vehicle: saline with Tween-80.

The list is a part of this screen's results and no random one: it gathers tests that were run many times, whatever their T/C, doses with no T/C, and many T/C values between a quarter and a half above the control. Other doses and runs of a compound stand elsewhere. T/C: endpoint of the treated group in % of that of the vehicle group. Some doses have a count of surviving animals in place of a T/C: the source files T/C as zero there, which appears to mark a toxic dose or a test without result, not a measured value. Some survivor counts are full or nearly so, which does not show that the dose was tolerated: survival well below the control is almost never listed, so the zero probably covers shortened survival too. Counts of survivors are from the toxicity check (mostly the fifth day) where no day follows; animals may have died later. Schedule codes are those of the source, taken here to give the interval after Q, in days (D) or hours (H), and the number of doses after X. For survival time, this PubChem deposit counts one and a half times the control or more as active, and values a quarter to a half above the control carry no call in these data; other NCI protocols may use other cut-offs. Some T/C values are followed by the survivors on the day toxicity was checked, most often the fifth; without a count, all were alive then.

In the case of `CNC(=O)c1ccc(NC(=O)Nc2cccc(C3=NCCN3)c2)cc1NC(=O)Nc1cccc(C2=NCCN2)c1`, the T/C is, setting by setting: (dose: 9.0 mg/kg/injection, schedule: Q01DX009 (ip), vehicle: saline with Tween-80, evaluated on day 29) 137 % of control; (dose: 9.0 mg/kg/injection, schedule: Q01DX009 (ip), vehicle: saline with Tween-80, evaluated on day 30) 125 % of control; under setting [1], 131 % of control; (dose: 13.0 mg/kg/injection, schedule: Q01DX009 (ip), vehicle: saline with Tween-80, evaluated on day 29) 141 % of control; (dose: 13.0 mg/kg/injection, schedule: Q01DX009 (ip), vehicle: saline with Tween-80, evaluated on day 30) 129 % of control; (dose: 20.0 mg/kg/injection, schedule: Q01DX009 (ip), vehicle: saline with Tween-80) 137 % of control. For the same compound, the survivor count (dose: 30.0 mg/kg/injection, schedule: Q01DX009 (ip), vehicle: saline with Tween-80) was 6 of 6 and the survivor count (dose: 40.0 mg/kg/injection, schedule: Q01DX009 (ip), vehicle: saline with Tween-80) is 3 of 6.

For `CC1C2CCC3C4CC=C5CC(N(C)C)CCC5(C)C4CCC32CN1C` (stereo not given), the survivor count was 1 of 6 (dose: 100.0 mg/kg/injection, schedule: Q01DX009 (ip), vehicle: saline); 0 of 6 (dose: 200.0 mg/kg/injection, schedule: Q01DX009 (ip), vehicle: saline); 0 of 6 (dose: 400.0 mg/kg/injection, schedule: Q01DX009 (ip), vehicle: saline).

Take `CC1=NN(c2ccccc2)C(=O)C1C(=S)SC1CC(=O)OC1=O` (stereo not given): the survivor count under setting [2] was 3 of 6.

Take `O=C(Nc1cccc(C(F)(F)F)c1)Nc1nccs1`: the survivor count (dose: 400.0 mg/kg/injection, schedule: Q01DX009 (ip), vehicle: Klucel (hydroxypropylcellulose) (HPC)) is reported as 0 of 6.

Take `O=C(O)/C=C/c1c(Cl)cccc1Cl`: the survivor count under setting [2] was 1 of 6.

Regarding `CCOc1c(Cl)cc(Cl)cc1C(c1ccc(Cl)cc1S(=O)(=O)O)c1cc(Cl)cc(Cl)c1OCC`, the survivor count under setting [3] is given as 4 of 6.

Turning to `CC1=C[S+](c2ccccc2)c2cccc3cc4ccccc4c1c23` (stereo not given), the T/C runs as follows: (dose: 0.4 mg/kg/injection, schedule: Q01DX009 (ip), vehicle: saline with Tween-80) 140 % of control [5 of 6 alive]; (dose: 0.62 mg/kg/injection, schedule: Q01DX009 (ip), vehicle: saline with Tween-80) 145 % of control; (dose: 0.63 mg/kg/injection, schedule: Q01DX009 (ip), vehicle: saline with Tween-80) 141 % of control; (dose: 1.25 mg/kg/injection, schedule: Q01DX009 (ip), vehicle: saline with Tween-80) 133 % of control.

For `COc1ccc2nc3cc(Cl)ccc3c(NCCCNCCCCNCCCNc3c4ccc(Cl)cc4nc4ccc(OC)cc34)c2c1`, the survivor count is 5 of 6 (dose: 5.0 mg/kg/injection, schedule: Q01DX009 (ip), vehicle: saline with Tween-80) and 1 of 6 under setting [1].

As to `O=C(/C=N/O)Nc1cc(Cl)c(Cl)cc1Cl`, the T/C under setting [2] is 128 % of control. In addition, the survivor count (dose: 300.0 mg/kg/injection, schedule: Q01DX009 (ip), vehicle: saline with Tween-80) is reported as 3 of 6.

As for `CN(C)N=Nc1ccccc1C(N)=O`, where the note is “dose: 62.5 mg/kg/injection, schedule: Q01DX009 (ip), vehicle: saline with Tween-80”, the T/C is 136 % of control. Also, the survivor count (dose: 125.0 mg/kg/injection, schedule: Q01DX009 (ip), vehicle: saline with Tween-80) was 5 of 6 and the survivor count (dose: 250.0 mg/kg/injection, schedule: Q01DX009 (ip), vehicle: saline with Tween-80) is 0 of 6.

On to `Cc1cc2nc(Oc3ccccc3)nc(=O)n2o1`, for which the survivor count (dose: 400.0 mg/kg/injection, schedule: Q01DX009 (ip), vehicle: saline with Tween-80) was 1 of 6.

In the case of `COc1cc2ccc3c(c2cc1OC)N(C)C(OC)c1cc2c(cc1-3)OCO2` (stereo not given), the T/C by setting is: (dose: 40.0 mg/kg/injection, schedule: Q01DX009 (ip), vehicle: water) 136 % of control; (dose: 80.0 mg/kg/injection, schedule: Q01DX009 (ip), vehicle: water) 145 % of control; (dose: 120.0 mg/kg/injection, schedule: Q01DX009 (ip), vehicle: water) 145 % of control.

As for `COc1cc(C=Nc2cc(Cl)cc(Cl)c2)ccc1N(CCCl)CCCl`, the survivor count (dose: 50.0 mg/kg/injection, schedule: Q01DX009 (ip), vehicle: saline with Tween-80) is reported as 6 of 6; the survivor count under setting [3] is 6 of 6; the survivor count under setting [2] is listed as 4 of 6.

Take `C=C(C)C(=O)OC1CC2(C)OC2CC(OC(C)=O)/C(C)=C/C2OC(=O)C(=C)C21` (stereo not given): the T/C runs as follows: (dose: 22.5 mg/kg/injection, schedule: Q01DX009 (ip), vehicle: saline) 131 % of control; (dose: 45.0 mg/kg/injection, schedule: Q01DX009 (ip), vehicle: saline) 131 % of control. For the same compound, where the note is “dose: 90.0 mg/kg/injection, schedule: Q01DX009 (ip), vehicle: saline”, the survivor count is given as 1 of 4.

As to `CCCCCCCCCCCCCCCCCC[N+](C)(C)C` (tested in a mixture with another compound), where the note is “dose: 8.0 mg/kg/injection, schedule: Q01DX009 (ip), vehicle: saline”, the survivor count is 3 of 6.

Turning to `C=C(Br)COCC`, the survivor count is given as 2 of 6 (dose: 80.0 mg/kg/injection, schedule: Q01DX009 (ip), vehicle: saline) and 1 of 6 (dose: 185.0 mg/kg/injection, schedule: Q01DX001 (ip), vehicle: saline).

Turning to `O=C(O)CC1SC(=S)N(c2ccccc2)C1=O` (stereo not given), the survivor count under setting [2] is recorded as 6 of 6.

Source of the values: PubChem BioAssay AID328 (DTP/NCI, 2004).
